# From publication PMC5412288
# No constants are given. Whether binding was seen depends on the method and setting. Binding seen in cells or lysates may run through a third protein. Some binding calls cover weakened binding; strength is not graded here. Sequences can lack the tags named with a protein.
# T1: Chs3 (chitin synthase 3) from Saccharomyces cerevisiae, full length, fused at its C-terminus to a half of Venus for BiFC (S. cerevisiae) (UniProt P29465)
# T1 sequence: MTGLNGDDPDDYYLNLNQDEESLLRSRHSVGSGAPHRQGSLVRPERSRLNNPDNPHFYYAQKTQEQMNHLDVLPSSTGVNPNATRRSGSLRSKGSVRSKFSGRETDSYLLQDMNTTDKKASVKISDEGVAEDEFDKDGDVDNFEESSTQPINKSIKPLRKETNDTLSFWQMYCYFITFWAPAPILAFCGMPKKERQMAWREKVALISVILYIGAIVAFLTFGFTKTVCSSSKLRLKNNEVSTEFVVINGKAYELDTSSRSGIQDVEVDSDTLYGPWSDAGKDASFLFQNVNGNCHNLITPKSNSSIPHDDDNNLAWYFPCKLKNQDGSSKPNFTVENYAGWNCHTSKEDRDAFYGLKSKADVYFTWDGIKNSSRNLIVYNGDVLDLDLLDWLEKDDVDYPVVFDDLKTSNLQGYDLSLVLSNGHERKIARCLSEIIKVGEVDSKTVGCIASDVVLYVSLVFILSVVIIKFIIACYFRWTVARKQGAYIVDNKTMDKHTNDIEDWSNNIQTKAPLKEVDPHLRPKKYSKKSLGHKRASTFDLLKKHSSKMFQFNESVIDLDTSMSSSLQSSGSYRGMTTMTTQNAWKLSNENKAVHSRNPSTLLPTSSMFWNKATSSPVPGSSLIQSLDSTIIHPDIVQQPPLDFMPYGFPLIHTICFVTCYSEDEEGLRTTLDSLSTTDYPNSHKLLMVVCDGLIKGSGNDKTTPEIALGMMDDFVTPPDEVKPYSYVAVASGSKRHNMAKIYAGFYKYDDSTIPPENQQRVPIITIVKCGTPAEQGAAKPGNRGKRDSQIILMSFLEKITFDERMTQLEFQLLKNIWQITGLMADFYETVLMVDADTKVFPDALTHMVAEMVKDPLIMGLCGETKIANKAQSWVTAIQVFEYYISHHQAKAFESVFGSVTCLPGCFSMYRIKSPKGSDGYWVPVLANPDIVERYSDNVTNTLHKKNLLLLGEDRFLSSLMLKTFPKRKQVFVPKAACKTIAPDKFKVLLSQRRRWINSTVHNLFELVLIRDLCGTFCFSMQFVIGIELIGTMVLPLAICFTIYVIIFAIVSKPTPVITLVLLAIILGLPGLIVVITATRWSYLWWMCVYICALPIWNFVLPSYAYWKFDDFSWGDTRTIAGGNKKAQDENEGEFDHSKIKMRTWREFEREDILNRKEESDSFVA
# Target: T1, Chs3 (chitin synthase 3) from Saccharomyces cerevisiae, full length, fused at its C-terminus to a half of Venus for BiFC (S. cerevisiae)
# Experiment: split reporter; BiFC with the halves of Venus in living S. cerevisiae cells; Chs3^VN genomically tagged, Chs3^VC versions from pRS415 under the MET25 promoter; cells synchronised with alpha-factor, fluorescence microscopy; wildtype background and chs4, chs5, chs6, chs7, pfa4, bni4 deletion strains
row,Binder,binding
1,"Chs3^(1-855 VC), C-terminally truncated Chs3 fused to the C-terminal half of Venus (domain or fragment, UniProt P29465 1-855) MTGLNGDDPDDYYLNLNQDEESLLRSRHSVGSGAPHRQGSLVRPERSRLNNPDNPHFYYAQKTQEQMNHLDVLPSSTGVNPNATRRSGSLRSKGSVRSKFSGRETDSYLLQDMNTTDKKASVKISDEGVAEDEFDKDGDVDNFEESSTQPINKSIKPLRKETNDTLSFWQMYCYFITFWAPAPILAFCGMPKKERQMAWREKVALISVILYIGAIVAFLTFGFTKTVCSSSKLRLKNNEVSTEFVVINGKAYELDTSSRSGIQDVEVDSDTLYGPWSDAGKDASFLFQNVNGNCHNLITPKSNSSIPHDDDNNLAWYFPCKLKNQDGSSKPNFTVENYAGWNCHTSKEDRDAFYGLKSKADVYFTWDGIKNSSRNLIVYNGDVLDLDLLDWLEKDDVDYPVVFDDLKTSNLQGYDLSLVLSNGHERKIARCLSEIIKVGEVDSKTVGCIASDVVLYVSLVFILSVVIIKFIIACYFRWTVARKQGAYIVDNKTMDKHTNDIEDWSNNIQTKAPLKEVDPHLRPKKYSKKSLGHKRASTFDLLKKHSSKMFQFNESVIDLDTSMSSSLQSSGSYRGMTTMTTQNAWKLSNENKAVHSRNPSTLLPTSSMFWNKATSSPVPGSSLIQSLDSTIIHPDIVQQPPLDFMPYGFPLIHTICFVTCYSEDEEGLRTTLDSLSTTDYPNSHKLLMVVCDGLIKGSGNDKTTPEIALGMMDDFVTPPDEVKPYSYVAVASGSKRHNMAKIYAGFYKYDDSTIPPENQQRVPIITIVKCGTPAEQGAAKPGNRGKRDSQIILMSFLEKITFDERMTQLEFQLLKNIWQITGLMADFYETVLMVDADTKVFPDALTHMVAEMVKD",binds
2,"Chs3 (chitin synthase 3) from Saccharomyces cerevisiae, full length, fused at its C-terminus to a half of Venus for BiFC (enzyme, UniProt P29465 1-1165) MTGLNGDDPDDYYLNLNQDEESLLRSRHSVGSGAPHRQGSLVRPERSRLNNPDNPHFYYAQKTQEQMNHLDVLPSSTGVNPNATRRSGSLRSKGSVRSKFSGRETDSYLLQDMNTTDKKASVKISDEGVAEDEFDKDGDVDNFEESSTQPINKSIKPLRKETNDTLSFWQMYCYFITFWAPAPILAFCGMPKKERQMAWREKVALISVILYIGAIVAFLTFGFTKTVCSSSKLRLKNNEVSTEFVVINGKAYELDTSSRSGIQDVEVDSDTLYGPWSDAGKDASFLFQNVNGNCHNLITPKSNSSIPHDDDNNLAWYFPCKLKNQDGSSKPNFTVENYAGWNCHTSKEDRDAFYGLKSKADVYFTWDGIKNSSRNLIVYNGDVLDLDLLDWLEKDDVDYPVVFDDLKTSNLQGYDLSLVLSNGHERKIARCLSEIIKVGEVDSKTVGCIASDVVLYVSLVFILSVVIIKFIIACYFRWTVARKQGAYIVDNKTMDKHTNDIEDWSNNIQTKAPLKEVDPHLRPKKYSKKSLGHKRASTFDLLKKHSSKMFQFNESVIDLDTSMSSSLQSSGSYRGMTTMTTQNAWKLSNENKAVHSRNPSTLLPTSSMFWNKATSSPVPGSSLIQSLDSTIIHPDIVQQPPLDFMPYGFPLIHTICFVTCYSEDEEGLRTTLDSLSTTDYPNSHKLLMVVCDGLIKGSGNDKTTPEIALGMMDDFVTPPDEVKPYSYVAVASGSKRHNMAKIYAGFYKYDDSTIPPENQQRVPIITIVKCGTPAEQGAAKPGNRGKRDSQIILMSFLEKITFDERMTQLEFQLLKNIWQITGLMADFYETVLMVDADTKVFPDALTHMVAEMVKDPLIMGLCGETKIANKAQSWVTAIQVFEYYISHHQAKAFESVFGSVTCLPGCFSMYRIKSPKGSDGYWVPVLANPDIVERYSDNVTNTLHKKNLLLLGEDRFLSSLMLKTFPKRKQVFVPKAACKTIAPDKFKVLLSQRRRWINSTVHNLFELVLIRDLCGTFCFSMQFVIGIELIGTMVLPLAICFTIYVIIFAIVSKPTPVITLVLLAIILGLPGLIVVITATRWSYLWWMCVYICALPIWNFVLPSYAYWKFDDFSWGDTRTIAGGNKKAQDENEGEFDHSKIKMRTWREFEREDILNRKEESDSFVA",binds

# The next lines start with the values.
row,binding,Binder
1,binds,"Chs3^(210-1165 VC), Chs3 lacking only the N-terminus, fused to the C-terminal half of Venus (domain or fragment, UniProt P29465 210-1165) LYIGAIVAFLTFGFTKTVCSSSKLRLKNNEVSTEFVVINGKAYELDTSSRSGIQDVEVDSDTLYGPWSDAGKDASFLFQNVNGNCHNLITPKSNSSIPHDDDNNLAWYFPCKLKNQDGSSKPNFTVENYAGWNCHTSKEDRDAFYGLKSKADVYFTWDGIKNSSRNLIVYNGDVLDLDLLDWLEKDDVDYPVVFDDLKTSNLQGYDLSLVLSNGHERKIARCLSEIIKVGEVDSKTVGCIASDVVLYVSLVFILSVVIIKFIIACYFRWTVARKQGAYIVDNKTMDKHTNDIEDWSNNIQTKAPLKEVDPHLRPKKYSKKSLGHKRASTFDLLKKHSSKMFQFNESVIDLDTSMSSSLQSSGSYRGMTTMTTQNAWKLSNENKAVHSRNPSTLLPTSSMFWNKATSSPVPGSSLIQSLDSTIIHPDIVQQPPLDFMPYGFPLIHTICFVTCYSEDEEGLRTTLDSLSTTDYPNSHKLLMVVCDGLIKGSGNDKTTPEIALGMMDDFVTPPDEVKPYSYVAVASGSKRHNMAKIYAGFYKYDDSTIPPENQQRVPIITIVKCGTPAEQGAAKPGNRGKRDSQIILMSFLEKITFDERMTQLEFQLLKNIWQITGLMADFYETVLMVDADTKVFPDALTHMVAEMVKDPLIMGLCGETKIANKAQSWVTAIQVFEYYISHHQAKAFESVFGSVTCLPGCFSMYRIKSPKGSDGYWVPVLANPDIVERYSDNVTNTLHKKNLLLLGEDRFLSSLMLKTFPKRKQVFVPKAACKTIAPDKFKVLLSQRRRWINSTVHNLFELVLIRDLCGTFCFSMQFVIGIELIGTMVLPLAICFTIYVIIFAIVSKPTPVITLVLLAIILGLPGLIVVITATRWSYLWWMCVYICALPIWNFVLPSYAYWKFDDFSWGDTRTIAGGNKKAQDENEGEFDHSKIKMRTWREFEREDILNRKEESDSFVA"
2,binds,"Chs3^(210-855 VC), N- and C-terminally truncated Chs3 fused to the C-terminal half of Venus (domain or fragment, UniProt P29465 210-855) LYIGAIVAFLTFGFTKTVCSSSKLRLKNNEVSTEFVVINGKAYELDTSSRSGIQDVEVDSDTLYGPWSDAGKDASFLFQNVNGNCHNLITPKSNSSIPHDDDNNLAWYFPCKLKNQDGSSKPNFTVENYAGWNCHTSKEDRDAFYGLKSKADVYFTWDGIKNSSRNLIVYNGDVLDLDLLDWLEKDDVDYPVVFDDLKTSNLQGYDLSLVLSNGHERKIARCLSEIIKVGEVDSKTVGCIASDVVLYVSLVFILSVVIIKFIIACYFRWTVARKQGAYIVDNKTMDKHTNDIEDWSNNIQTKAPLKEVDPHLRPKKYSKKSLGHKRASTFDLLKKHSSKMFQFNESVIDLDTSMSSSLQSSGSYRGMTTMTTQNAWKLSNENKAVHSRNPSTLLPTSSMFWNKATSSPVPGSSLIQSLDSTIIHPDIVQQPPLDFMPYGFPLIHTICFVTCYSEDEEGLRTTLDSLSTTDYPNSHKLLMVVCDGLIKGSGNDKTTPEIALGMMDDFVTPPDEVKPYSYVAVASGSKRHNMAKIYAGFYKYDDSTIPPENQQRVPIITIVKCGTPAEQGAAKPGNRGKRDSQIILMSFLEKITFDERMTQLEFQLLKNIWQITGLMADFYETVLMVDADTKVFPDALTHMVAEMVKD"
